{"source": "paper PMC9297786", "about": "(Molecular Oncology, 2022)", "system": "K562", "parameters": "MTT cell growth inhibition assay, absorbance at 490 nm", "conditions": "48 h; inhibitor", "procedure": "Exponential‐phase cells were seeded into 96‐well plates at a density of 2 × 10^4 cells per well in complete medium. After 24 h, cells were treated with drugs at indicated concentrations and incubated for 48 h. Fresh medium containing 20 μL MTT solution (5 mg·mL^−1) was then added to each well. Then plates were incubated for another 4 h at 37 °C. After removing the medium, 150 μL DMSO was added to each well. The absorbance was recorded at 490 nm in the microplate reader and the inhibition ratio (I%) was calculated. The cell growth assay was conducted as described previously. K562 cells were cultured in IMDM containing 10% fetal bovine serum, 100 U·mL^−1 penicillin and 100 U·mL^−1 streptomycin. […] MEG‐01 cells were cultured in DMEM containing 10% fetal bovine serum, 100 U·mL^−1 penicillin and 100 U·mL^−1 streptomycin. […] Cells were grown at 37 °C in a humidified atmosphere with 5% CO2. […] To identify an EPHB4‐specific inhibitor with a potential of rapid translation into clinic, a pool of clinically approved TKIs and compounds was screened in this study (Fig. S2 and Table S4).", "data": [{"smiles": "CCC(=O)C(CC(C)N(C)C)(c1ccccc1)c1ccccc1", "note": "(stereo not shown) [methadone]", "values": [{"measurement": "Inhibition rate (%, 10 μM)", "value": -33.43, "unit": "%"}]}]}
